Experimental data: article PMC9223585, “Structural and Functional Insights into CP2c Transcription Factor Complexes” (International Journal of Molecular Sciences, 2022)
Results are given in words; binding and its absence hold for the method and conditions named. In cells and extracts the contact can be indirect. Some entries that bind do so weakly or less than the wild type. For part of these data: Sequences can lack the tags named with a protein.

The chains behind the UniProt entries cited, without tags or fusion partners.
UniProt O88907: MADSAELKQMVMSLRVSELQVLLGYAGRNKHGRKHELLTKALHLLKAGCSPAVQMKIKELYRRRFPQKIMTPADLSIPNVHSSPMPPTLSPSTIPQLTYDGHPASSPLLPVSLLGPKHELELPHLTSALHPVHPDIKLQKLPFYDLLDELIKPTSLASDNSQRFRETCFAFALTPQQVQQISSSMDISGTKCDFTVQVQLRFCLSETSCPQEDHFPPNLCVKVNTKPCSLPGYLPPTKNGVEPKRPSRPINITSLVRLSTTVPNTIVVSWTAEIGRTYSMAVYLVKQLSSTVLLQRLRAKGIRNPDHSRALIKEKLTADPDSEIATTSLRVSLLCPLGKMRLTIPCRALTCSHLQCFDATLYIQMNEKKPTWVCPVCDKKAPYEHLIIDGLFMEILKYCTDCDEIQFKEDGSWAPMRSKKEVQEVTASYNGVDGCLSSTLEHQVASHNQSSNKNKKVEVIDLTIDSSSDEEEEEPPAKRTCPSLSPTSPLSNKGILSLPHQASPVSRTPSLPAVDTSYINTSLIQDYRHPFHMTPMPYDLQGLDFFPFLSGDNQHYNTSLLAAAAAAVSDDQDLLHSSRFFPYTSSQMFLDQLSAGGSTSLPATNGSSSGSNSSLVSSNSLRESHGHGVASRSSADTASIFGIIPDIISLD

T1: CP2c (Tfcp2), endogenous mouse (mouse (endogenous in MEL)) (UniProt Q9ERA0)
T1 sequence: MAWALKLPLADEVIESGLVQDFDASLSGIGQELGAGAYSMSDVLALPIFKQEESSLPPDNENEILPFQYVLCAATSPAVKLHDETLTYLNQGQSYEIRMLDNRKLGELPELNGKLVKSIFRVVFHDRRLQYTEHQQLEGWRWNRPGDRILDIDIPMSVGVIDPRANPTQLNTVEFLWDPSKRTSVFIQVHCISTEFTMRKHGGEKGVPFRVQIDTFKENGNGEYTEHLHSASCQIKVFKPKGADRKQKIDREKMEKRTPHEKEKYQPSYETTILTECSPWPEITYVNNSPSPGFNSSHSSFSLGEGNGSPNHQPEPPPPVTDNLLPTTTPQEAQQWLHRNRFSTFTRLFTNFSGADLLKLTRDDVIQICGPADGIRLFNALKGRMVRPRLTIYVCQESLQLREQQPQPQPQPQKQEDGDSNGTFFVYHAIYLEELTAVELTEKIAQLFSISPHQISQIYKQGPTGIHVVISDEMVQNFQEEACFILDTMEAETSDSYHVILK

T2: Flag-CP2c (UniProt Q9ERA0)
T2 sequence: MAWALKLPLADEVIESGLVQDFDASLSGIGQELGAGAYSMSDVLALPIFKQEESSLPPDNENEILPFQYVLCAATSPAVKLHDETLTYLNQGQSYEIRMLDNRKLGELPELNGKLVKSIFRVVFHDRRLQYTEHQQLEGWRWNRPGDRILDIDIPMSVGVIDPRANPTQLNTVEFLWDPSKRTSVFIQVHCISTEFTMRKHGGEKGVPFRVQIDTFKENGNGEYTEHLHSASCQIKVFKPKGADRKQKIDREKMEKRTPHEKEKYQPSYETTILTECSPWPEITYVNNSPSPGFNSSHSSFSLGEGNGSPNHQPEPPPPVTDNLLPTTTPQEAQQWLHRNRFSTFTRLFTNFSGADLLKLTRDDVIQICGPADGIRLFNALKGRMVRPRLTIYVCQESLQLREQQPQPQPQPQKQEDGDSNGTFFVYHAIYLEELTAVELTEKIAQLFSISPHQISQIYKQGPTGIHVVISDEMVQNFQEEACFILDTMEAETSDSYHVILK

T3: CP2c (TFCP2), endogenous human (human (endogenous in MDA-MB-231)) (UniProt Q12800)
T3 sequence: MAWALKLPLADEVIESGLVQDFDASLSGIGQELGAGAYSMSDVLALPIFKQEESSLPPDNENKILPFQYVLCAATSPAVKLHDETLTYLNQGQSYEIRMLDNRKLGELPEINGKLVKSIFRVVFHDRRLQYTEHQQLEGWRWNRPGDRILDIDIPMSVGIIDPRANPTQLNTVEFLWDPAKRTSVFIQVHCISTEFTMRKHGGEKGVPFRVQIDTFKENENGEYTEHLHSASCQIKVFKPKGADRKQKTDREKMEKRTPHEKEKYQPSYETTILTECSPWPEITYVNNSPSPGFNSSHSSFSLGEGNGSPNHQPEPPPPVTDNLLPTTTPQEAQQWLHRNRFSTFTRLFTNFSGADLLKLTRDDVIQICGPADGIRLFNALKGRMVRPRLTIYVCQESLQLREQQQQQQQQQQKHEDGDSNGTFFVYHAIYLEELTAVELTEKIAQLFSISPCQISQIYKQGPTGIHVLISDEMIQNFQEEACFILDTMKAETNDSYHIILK


Assays:
[1] = molecular target: T1, CP2c (Tfcp2), endogenous mouse (mouse (endogenous in MEL)); experiment: cross-linking + co-IP; DSP XL-WB: nuclear extracts of MEL cells, uninduced (d0) and HMBA-induced (d3), Benzonase, 2 mM DSP 30 min at room temperature, IP, sequential Western blot with and without DTT
[2] = molecular target: T1, CP2c (Tfcp2), endogenous mouse (mouse (endogenous in MEL)); experiment: cross-linking + co-IP; DSP XL-WB: cytosolic extracts of MEL cells, uninduced (d0) and HMBA-induced (d3), Benzonase, 2 mM DSP 30 min at room temperature, IP, sequential Western blot with and without DTT
Flag-CP2c = molecular target: T2, Flag-CP2c; experiment: cross-linking + co-IP; DSP XL-WB: nuclear extracts of 293T cells overexpressing Flag-CP2c, EGFP-CP2b and Flag-PIAS1, with or without CP2a; 2 mM DSP, IP, sequential Western blot
[3] = molecular target: T3, CP2c (TFCP2), endogenous human (human (endogenous in MDA-MB-231)); experiment: cross-linking + co-IP; DSP XL-WB: cytosolic extracts of MDA-MB-231 cells, Benzonase, 2 mM DSP 30 min at room temperature, IP with CP2c, CP2b or PIAS1 antibodies, sequential Western blot with and without DTT

Molecule | binding [1] | binding [2] | binding (Flag-CP2c) | binding [3]
Pias1, endogenous mouse (from UniProt O88907 1-651) | binds | binds | – | –
Flag-PIAS1 (from UniProt O88907 1-651) | – | – | binds | –
CP2a, endogenous human (protein, UniProt Q9NZI7-4 1-504) MAWVLKMDEVIESGLVHDFDASLSGIGQELGAGAYSMSDVLALPIFKQEDSSLPLDGETEHPPFQYVMCAATSPAVKLHDETLTYLNQGQSYEIRMLDNRKMGDMPEINGKLVKSIIRVVFHDRRLQYTEHQQLEGWKWNRPGDRLLDLDIPMSVGIIDTRTNPSQLNAVEFLWDPAKRTSAFIQVHCISTEFTPRKHGGEKGVPFRIQVDTFKQNENGEYTDHLHSASCQIKVFKPKGADRKQKTDREKMEKRTAHEKEKYQPSYDTTILTECSPWPDAPTAYVNNSPSPAPTFTSPQQSTCSVPDSNSSSPNHQGDGASQTSGEQIQPSATIQETQQWLLKNRFSSYTRLFSNFSGADLLKLTKEDLVQICGAADGIRLYNSLKSRSVRPRLTIYVCREQPSSTVLQGQQQAASSASENGSGAPYVYHAIYLEEMIASEVARKLALVFNIPLHQINQVYRQGPTGIHILVSDQMVQNFQDESCFLFSTVKAESSDGIHIILK | – | – | – | binds
CP2c (Tfcp2), endogenous mouse (protein, UniProt Q9ERA0 1-502) MAWALKLPLADEVIESGLVQDFDASLSGIGQELGAGAYSMSDVLALPIFKQEESSLPPDNENEILPFQYVLCAATSPAVKLHDETLTYLNQGQSYEIRMLDNRKLGELPELNGKLVKSIFRVVFHDRRLQYTEHQQLEGWRWNRPGDRILDIDIPMSVGVIDPRANPTQLNTVEFLWDPSKRTSVFIQVHCISTEFTMRKHGGEKGVPFRVQIDTFKENGNGEYTEHLHSASCQIKVFKPKGADRKQKIDREKMEKRTPHEKEKYQPSYETTILTECSPWPEITYVNNSPSPGFNSSHSSFSLGEGNGSPNHQPEPPPPVTDNLLPTTTPQEAQQWLHRNRFSTFTRLFTNFSGADLLKLTRDDVIQICGPADGIRLFNALKGRMVRPRLTIYVCQESLQLREQQPQPQPQPQKQEDGDSNGTFFVYHAIYLEELTAVELTEKIAQLFSISPHQISQIYKQGPTGIHVVISDEMVQNFQEEACFILDTMEAETSDSYHVILK | binds | binds | – | –
CP2b, endogenous mouse (protein, UniProt Q811S7 1-540) MAWVLSMDEVIESGLVHDFDSSLSGIGQELGAGAYSMSDVLALPIFKQEDSSLSLEDEAKHPPFQYVMCAATSPAVKLHDETLTYLNQGQSYEIRMLDNRKMGDMPELSGKLVKSIIRVVFHDRRLQYTEHQQLEGWKWNRPGDRLLDLDIPMSVGIIDTRTNPSQLNAVEFLWDPAKRTSAFIQVHCISTEFTPRKHGGEKGVPFRIQVDTFKQNENGEYTDHLHSASCQIKVFKPKGADRKQKNDREKMEKRTAHEKEKYQPSYDTTILTEMRLEPIIEDAVEHEQKKSSKRTLPADYGDSLAKRGSCSPWPDTPTAYVNNSPSPAPTFTSSQPSTCSVPDSNSSSPNHQGDGAAQASGEQIQPSATTQETQQWLLKNRFSSYTRLFSNFSGADLLKLTKEDLVQICGAADGIRLYNSLKSRSVRPRLTIYVCQEQPSSTALQGQPQAAGSGGESGGGTPSVYHAIYLEEMVASEVARKLASVFNIPFHQINQVYRQGPTGIHILVSDQMVQNFQDETCFLFSTVKAENNDGIHIILK | binds | binds | – | –
EGFP-CP2b (protein, UniProt Q811S7 1-540) MAWVLSMDEVIESGLVHDFDSSLSGIGQELGAGAYSMSDVLALPIFKQEDSSLSLEDEAKHPPFQYVMCAATSPAVKLHDETLTYLNQGQSYEIRMLDNRKMGDMPELSGKLVKSIIRVVFHDRRLQYTEHQQLEGWKWNRPGDRLLDLDIPMSVGIIDTRTNPSQLNAVEFLWDPAKRTSAFIQVHCISTEFTPRKHGGEKGVPFRIQVDTFKQNENGEYTDHLHSASCQIKVFKPKGADRKQKNDREKMEKRTAHEKEKYQPSYDTTILTEMRLEPIIEDAVEHEQKKSSKRTLPADYGDSLAKRGSCSPWPDTPTAYVNNSPSPAPTFTSSQPSTCSVPDSNSSSPNHQGDGAAQASGEQIQPSATTQETQQWLLKNRFSSYTRLFSNFSGADLLKLTKEDLVQICGAADGIRLYNSLKSRSVRPRLTIYVCQEQPSSTALQGQPQAAGSGGESGGGTPSVYHAIYLEEMVASEVARKLASVFNIPFHQINQVYRQGPTGIHILVSDQMVQNFQDETCFLFSTVKAENNDGIHIILK | – | – | binds | –
